# Some of the results follow.
# B1: PX9961K-bvu-480-28-480 (Bacteroides vulgatus) (protein)
# chain: NKIPTTMAFRTVTDVDNAVNGLYDLMSGSGYYGAAMFAYGDMKGDDMQSSEESGVCNTCYMFNHRPNSLNAGSLWGRPFYILREAWNILNAIAEGKIESGDEKKLNALKGETMAVIALCQFDLTRCFGYPYTKDKGASLGAPLIDHLVGTYENPPRSTVAQAYDFIIETLEEAVTLMSEEKNNGRMNKYAARALLARIYLYHDDNRKAFDLADQLIKDADTSGSYALYPHEKYVAAWSVEAKFGSESFFEIANSVDDTPGRDSWGYLLNWYGYQKGFVTQKYAEQMLADPGDVRGHLLEENKYAGKTVWWLYKLRGTDLKTAPLECNNVVLRLSEVYLIAAEAGCKLGGDAAVQGLGYLNEIVKRGNPDNEVTMADYTLDRVLDERSKELVGEGHRFFDLLRNGKTIVRKGGYHLPSVDEEVDWDFYKCVLPIPEDQFIFSPEMEQNPGYPKN
# How the values were obtained:
# Test in all cases: glycan array binding signal (z-score within array); higher = stronger binding
# Settings in all cases: glycan notation: IUPAC condensed, linker removed
# Gal(a1-3)Gal(b1-3)GlcNAc = target: Gal(a1-3)Gal(b1-3)GlcNAc
# Method in brief: (§1)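 Glycan array data were curated from 3228 arrays in the Consortium for Functional Glycomics database and kept only where the protein sequence was available. Glycan names were converted to IUPAC-condensed notation, and columns mapping to the same glycan were averaged. The binding signal is a within-array Z-score, averaged across arrays of the same protein sequence at different concentrations or buffers and across linkers. Negative Z-scores can be read as non-binding.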
# [1] = target: Gal(a1-3)Gal(b1-3)GlcNAc(b1-2)Man
# Method in brief: as §1
# [2] = target: Gal(a1-3)Gal(b1-3)GlcNAc(b1-2)Man(a1-3)[Gal(a1-3)Gal(b1-3)GlcNAc(b1-2)Man(a1-6)]Man(b1-4)GlcNAc(b1-4)GlcNAc
# Method in brief: as §1
# [3] = target: Gal(a1-3)Gal(b1-3)GlcNAc(b1-3)GalNAc
# Method in brief: as §1
# [4] = target: Gal(a1-3)Gal(b1-3)GlcNAc(b1-6)GalNAc
# Method in brief: as §1
# [5] = target: Gal(a1-3)Gal(b1-3)[Fuc(a1-4)]GlcNAc(b1-2)Man(a1-3)[Gal(a1-3)Gal(b1-3)[Fuc(a1-4)]GlcNAc(b1-2)Man(a1-6)]Man(b1-4)GlcNAc(b1-4)GlcNAc
# Method in brief: as §1
# Gal(a1-3)Gal(b1-4)Glc = target: Gal(a1-3)Gal(b1-4)Glc
# Method in brief: as §1
# Gal(a1-3)Gal(b1-4)GlcNAc = target: Gal(a1-3)Gal(b1-4)GlcNAc
# Method in brief: as §1
# [6] = target: Gal(a1-3)Gal(b1-4)GlcNAc(b1-2)Man
# Method in brief: as §1
# [7] = target: Gal(a1-3)Gal(b1-4)GlcNAc(b1-2)Man(a1-3)[Gal(a1-3)Gal(b1-4)GlcNAc(b1-2)Man(a1-6)]Man(b1-4)GlcNAc(b1-4)GlcNAc
# Method in brief: as §1
# [8] = target: Gal(a1-3)Gal(b1-4)GlcNAc(b1-3)GalNAc
# Method in brief: as §1
# [9] = target: Gal(a1-3)Gal(b1-4)GlcNAc(b1-6)GalNAc
# Method in brief: as §1
# [10] = target: Gal(a1-3)Gal(b1-4)[Fuc(a1-3)]GlcNAc
# Method in brief: as §1
# [11] = target: Gal(a1-3)Gal(b1-4)[Fuc(a1-3)]GlcNAc(b1-2)Man(a1-3)[Gal(a1-3)Gal(b1-4)[Fuc(a1-3)]GlcNAc(b1-2)Man(a1-6)]Man(b1-4)GlcNAc(b1-4)GlcNAc
# Method in brief: as §1
# Gal(a1-3)GalNAc = target: Gal(a1-3)GalNAc
# Method in brief: as §1
# [12] = target: Gal(a1-3)[Gal(a1-4)]Gal(b1-4)GlcNAc
# Method in brief: as §1
# [13] = target: Gal(a1-4)Gal(b1-3)GlcNAc(b1-2)Man(a1-3)[Gal(a1-4)Gal(b1-3)GlcNAc(b1-2)Man(a1-6)]Man(b1-4)GlcNAc(b1-4)GlcNAc
# Method in brief: as §1
# Gal(a1-4)Gal(b1-4)Glc = target: Gal(a1-4)Gal(b1-4)Glc
# Method in brief: as §1
# Gal(a1-4)Gal(b1-4)GlcNAc = target: Gal(a1-4)Gal(b1-4)GlcNAc
# Method in brief: as §1
# [14] = target: Gal(a1-4)Gal(b1-4)GlcNAc(b1-2)Man(a1-3)[Gal(a1-4)Gal(b1-4)GlcNAc(b1-2)Man(a1-6)]Man(b1-4)GlcNAc(b1-4)GlcNAc
# Method in brief: as §1
# [15] = target: Gal(a1-4)Gal(b1-4)GlcNAc(b1-3)Gal(b1-4)Glc
# Method in brief: as §1
# Gal(a1-4)GlcNAc = target: Gal(a1-4)GlcNAc
# Method in brief: as §1
# Gal(a1-6)Glc = target: Gal(a1-6)Glc
# Method in brief: as §1
# Gal(b1-2)Gal = target: Gal(b1-2)Gal
# Method in brief: as §1
# Gal(b1-3)Gal = target: Gal(b1-3)Gal
# Method in brief: as §1
# Gal(b1-3)Gal(b1-4)GlcNAc = target: Gal(b1-3)Gal(b1-4)GlcNAc
# Method in brief: as §1
# Gal(b1-3)GalNAc = target: Gal(b1-3)GalNAc
# Method in brief: as §1
# [16] = target: Gal(b1-3)GalNAc(a1-3)[Fuc(a1-2)]Gal(b1-4)Glc
# Method in brief: as §1
# [17] = target: Gal(b1-3)GalNAc(a1-3)[Fuc(a1-2)]Gal(b1-4)GlcNAc
# Method in brief: as §1
# Gal(b1-3)GalNAc(b1-3)Gal = target: Gal(b1-3)GalNAc(b1-3)Gal
# Method in brief: as §1
# [18] = target: Gal(b1-3)GalNAc(b1-3)Gal(a1-4)Gal(b1-4)Glc
# Method in brief: as §1
# [19] = target: Gal(b1-3)GalNAc(b1-4)Gal(b1-4)Glc
# Method in brief: as §1
# [20] = target: Gal(b1-3)GalNAc(b1-4)[Neu5Ac(a2-3)]Gal(b1-4)Glc
# Method in brief: as §1
# Gal(b1-3)GlcNAc = target: Gal(b1-3)GlcNAc
# Method in brief: as §1
# [21] = target: Gal(b1-3)GlcNAc(a1-3)Gal(b1-4)GlcNAc
# Method in brief: as §1
# [22] = target: Gal(b1-3)GlcNAc(a1-6)Gal(b1-4)GlcNAc
# Method in brief: as §1
# Gal(b1-3)GlcNAc(b1-2)Man = target: Gal(b1-3)GlcNAc(b1-2)Man
# Method in brief: as §1
# [23] = target: Gal(b1-3)GlcNAc(b1-2)Man(a1-3)[Gal(b1-3)GlcNAc(b1-2)Man(a1-6)]Man(b1-4)GlcNAc(b1-4)GlcNAc
# Method in brief: as §1
binder,measurement,setting,value
B1,glycan array binding signal (z-score),Gal(a1-3)Gal(b1-3)GlcNAc,-0.593
same,glycan array binding signal (z-score),[1],-0.507
same,glycan array binding signal (z-score),[2],0.762
same,glycan array binding signal (z-score),[3],-0.949
same,glycan array binding signal (z-score),[4],0.051
same,glycan array binding signal (z-score),[5],-0.117
same,glycan array binding signal (z-score),Gal(a1-3)Gal(b1-4)Glc,-0.354
same,glycan array binding signal (z-score),Gal(a1-3)Gal(b1-4)GlcNAc,-0.719
same,glycan array binding signal (z-score),[6],-0.089
same,glycan array binding signal (z-score),[7],0.214
same,glycan array binding signal (z-score),[8],-0.276
same,glycan array binding signal (z-score),[9],-0.52
same,glycan array binding signal (z-score),[10],-0.376
same,glycan array binding signal (z-score),[11],0.602
same,glycan array binding signal (z-score),Gal(a1-3)GalNAc,-0.059
same,glycan array binding signal (z-score),[12],3.09
same,glycan array binding signal (z-score),[13],0.366
same,glycan array binding signal (z-score),Gal(a1-4)Gal(b1-4)Glc,-0.955
same,glycan array binding signal (z-score),Gal(a1-4)Gal(b1-4)GlcNAc,0.468
same,glycan array binding signal (z-score),[14],1.47
same,glycan array binding signal (z-score),[15],-0.555
same,glycan array binding signal (z-score),Gal(a1-4)GlcNAc,-0.775
same,glycan array binding signal (z-score),Gal(a1-6)Glc,-0.367
same,glycan array binding signal (z-score),Gal(b1-2)Gal,0.817
same,glycan array binding signal (z-score),Gal(b1-3)Gal,1.03
same,glycan array binding signal (z-score),Gal(b1-3)Gal(b1-4)GlcNAc,-0.784
same,glycan array binding signal (z-score),Gal(b1-3)GalNAc,-0.53
same,glycan array binding signal (z-score),[16],-0.261
same,glycan array binding signal (z-score),[17],0.449
same,glycan array binding signal (z-score),Gal(b1-3)GalNAc(b1-3)Gal,-0.645
same,glycan array binding signal (z-score),[18],0.509
same,glycan array binding signal (z-score),[19],-0.326
same,glycan array binding signal (z-score),[20],-0.368
same,glycan array binding signal (z-score),Gal(b1-3)GlcNAc,-0.413
same,glycan array binding signal (z-score),[21],0.581
same,glycan array binding signal (z-score),[22],-0.17
same,glycan array binding signal (z-score),Gal(b1-3)GlcNAc(b1-2)Man,0.832
same,glycan array binding signal (z-score),[23],-0.001

# Part of the list above, reformatted:
binder | measurement | setting | value
B1 | glycan array binding signal (z-score) | Gal(a1-6)Glc | -0.367
same | glycan array binding signal (z-score) | Gal(b1-2)Gal | 0.817

# Source: the supplement of paper PMC8728848
